Experimental data: PubChem BioAssay AID493014 (National Center for Advancing Translational Sciences (NCATS), 2011)
The other results are listed elsewhere or left out. The main result of the screen is listed elsewhere. These columns were measured beside it and carry no call. The list favours compounds with an active or inconclusive main result. Potencies come from curve fits of mixed quality, noted in brackets.

Test: qHTS Assay to Find Inhibitors of Chronic Active B-Cell Receptor Signaling
Settings: ABC-DLBCL IkBa-CBG/CBR reporter, luminescence ratio (green luciferase fused to IkBa over red control in TMD8 lymphoma cells), 4 h
Method in brief: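 TMD8 human ABC-DLBCL cells with doxycycline-inducible IκBα–green luciferase fusion and unfused red luciferase, in 0.5% FBS medium; compounds up to 46 uM, 4 h at 37C. Green/red luminescence ratio, filter-overlap corrected, fitted to concentration-response curves.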

[1] = measured here: CBR red luminescence, cell number
[2] = measured here: IkBa-CBG green luminescence

Row | SMILES | AC50 [1] | AC50 [2]
1 | CC(C)c1cc(C(=O)Nc2cc(Br)ccc2O)no1 | 0.231 µM [rising, full curve, poor fit] | 
2 | O=C(N/N=C/c1cccnc1)c1ccccc1Cl | 35.5 µM [falling, single point] | 
3 | Cc1ccc(/C=N/Nc2nc3ccccc3s2)o1 | 13 µM [falling, single point] | 
4 | Cc1cc(C(=O)NN)c(C)o1 | 10 µM [falling, partial curve] | 
5 | CC1=C(C#N)C(/C=N/OCc2ccc(Cl)cc2)CC(=O)N1 (configuration not stated) | 3.16 µM [rising, partial curve] | 
6 | Cc1ccc(S(=O)(=O)c2c(N)n(CCC(C)C)c3nc4ccccc4nc23)cc1 | 29.1 µM [falling, single point] | 11.6 µM [rising, partial curve, poor fit]
7 | C/C(N)=C(/C#N)C(=O)CSc1ccccc1F | 20 µM [falling, single point] | 
8 | Cc1cc(C)cc(OCc2nnc(SCC(=O)OC(C)C)o2)c1 | 20.6 µM [falling, partial curve, poor fit] | 
9 | CN(C)S(=O)(=O)c1ccc(C(=O)N2CCN=C2SCc2cccnc2)cc1 | 29.1 µM [falling, single point] | 
10 | CC(=O)Nc1ccc(NS(=O)(=O)c2ccc(C)cc2)cc1[N+](=O)[O-] | 3.98 µM [rising, single point] | 
11 | Cc1cc(NC(=O)COC(=O)CSCc2ccc(Cl)c(Cl)c2)no1 | 7.31 µM [rising, partial curve, poor fit] | 
12 | Cc1ccc(N(CC2CO2)S(=O)(=O)c2ccc([N+](=O)[O-])cc2)cc1 (configuration not stated) | 12.6 µM [falling, partial curve, poor fit] | 
13 | Cc1nc2ccccc2n1C(=O)c1cc(-c2ccc(Br)cc2)nc2ccccc12 | 17.8 µM [rising, single point] | 
14 | COc1ccc(CNC(=O)CNC(=O)c2cccs2)c(OC)c1 | 0.1 µM [rising, full curve, poor fit] | 
15 | CCOC(=O)CNc1c(-c2ccccc2)nc2ccc(Cl)cn12 | 10 µM [falling, partial curve] | 12.6 µM [rising, partial curve, poor fit]
16 | COCCNC(=S)N1CCN(c2ccc(Cl)cc2)CC1 | 20 µM [rising, single point] | 
17 | COc1ccc(S(=O)(=O)Nc2nc3ccccc3nc2NCC2CCCO2)cc1 (configuration not stated) | 6.31 µM [rising, single point] | 
18 | COc1ccc2sc(-c3ccc(SC)cc3)c(C#CCO)c2c1 | 0.0651 µM [rising, full curve, poor fit] | 
19 | COc1ccc(S(=O)(=O)N(C)CC(=O)N2CCC(C(N)=O)CC2)cc1Cl | 32.6 µM [rising, single point] | 
20 | CN(Cc1nc(Cc2cccc(F)c2)no1)CC1COCCO1 (configuration not stated) |  | 10 µM [rising, partial curve, poor fit]
21 | COc1cc(/C=N/NC(N)=S)cc(Br)c1OCc1ccccc1F | 6.51 µM [falling, partial curve] | 

Row | SMILES | AC50 [1] | AC50 [2]
22 | CS(=O)(=O)N(CC(=O)N1CCN(c2ccccc2)CC1)c1ccc(Cl)c(C(F)(F)F)c1 | 0.00517 µM [rising, full curve, poor fit] | 
23 | O=S(=O)(Nc1nc2ccccc2nc1NCC1CCCO1)c1ccc(F)cc1 (configuration not stated) | 11.2 µM [falling, partial curve, poor fit] | 
24 | O=C(Nc1ccccc1)c1cccc2c(Br)cccc12 | 2.82 µM [rising, single point] | 
25 | C=CCN1C(=S)N[C@@H]2CS(=O)(=O)C[C@@H]21 | 1.41 µM [falling, full curve, poor fit] | 
26 | Cc1cc(OCc2nc3ccccc3s2)ccc1N | 10 µM [falling, partial curve] | 
27 | CCN(Cc1nc2ccccc2c(=O)[nH]1)C(=O)c1cc(C2CC2)nn1-c1ccccc1 | 11.6 µM [falling, partial curve, poor fit] | 
28 | Cc1cc(C)cc(NC(=O)CCc2ccc(C)o2)c1 | 3.98 µM [falling, single point] | 
29 | COc1cccc(-c2nc(-c3ccc(NC(=O)Cc4ccccc4OC)cc3)no2)c1 | 1.64 µM [falling, partial curve, poor fit] | 
30 | C/C(=N/OCO/N=C(\C)c1ccc(F)cc1F)c1ccc(F)cc1F | 0.92 µM [rising, full curve, poor fit] | 
31 | Cc1ccc(S(=O)(=O)N2CCOCC2)cc1NC(=O)COC(=O)C1=COCCO1 | 18.4 µM [falling, partial curve, poor fit] | 
32 | O=C(NCCc1ccccc1)/C(=N\O)c1ccccc1 | 11.2 µM [falling, single point] | 
33 | Cc1nccn1-c1c([N+](=O)[O-])c(=O)n(C)c2ccccc12 | 35.5 µM [falling, single point] | 
34 | Cc1ccc(-c2csc(Nc3ccccn3)n2)cc1 | 11.2 µM [falling, single point] | 
35 | Cc1ccc(-c2ccc(CCC(=O)O)n2-c2ccc(C(=O)O)cc2)cc1 | 10 µM [falling, partial curve, poor fit] | 
36 | Nc1ncnc2c1ncn2CCNCCc1ccccc1 | 25.9 µM [rising, partial curve, poor fit] | 
37 | O=C(O)c1csc(-c2cccc(Cl)c2)n1 | 11.2 µM [rising, partial curve] | 
38 | CC(C)C(=O)OC/C(O)=C(\C#N)c1nc2ccccc2[nH]1 | 25.1 µM [falling, single point] | 12.6 µM [rising, partial curve, poor fit]
39 | CSc1ccccc1OCc1cc(C(=O)N(C)C(C)c2ccccn2)no1 (configuration not stated) | 35.5 µM [falling, single point] | 
40 | CC(=O)NCCC(=O)N(Cc1ccccc1)c1nc2c(C)cccc2s1 | 12.6 µM [falling, partial curve, poor fit] | 
41 | Cc1ccc(OC(=O)COc2ccccc2)c(-n2nc3ccccc3n2)c1 | 29.1 µM [rising, single point] | 
42 | COc1ccc(-c2noc(CCC(=O)Nc3cc(Cl)c(OC)cc3OC)n2)cc1 | 0.651 µM [rising, full curve] | 

A different layout for part of the listing above:
Row,SMILES,AC50 [1],AC50 [2]
3,Cc1ccc(/C=N/Nc2nc3ccccc3s2)o1,"13 µM [falling, single point]",
4,Cc1cc(C(=O)NN)c(C)o1,"10 µM [falling, partial curve]",
5,CC1=C(C#N)C(/C=N/OCc2ccc(Cl)cc2)CC(=O)N1 (configuration not stated),"3.16 µM [rising, partial curve]",
6,Cc1ccc(S(=O)(=O)c2c(N)n(CCC(C)C)c3nc4ccccc4nc23)cc1,"29.1 µM [falling, single point]","11.6 µM [rising, partial curve, poor fit]"

Next entries follow:

Row | SMILES | AC50 [1] | AC50 [2]
43 | O=C(CN1CCN(C(=O)c2ccco2)CC1)Nc1ccccc1-c1ccccc1 | 11.2 µM [falling, partial curve] | 
44 | Cc1ccn2c(NC(=O)c3ccco3)c(-c3ccccc3)nc2c1 | 29.1 µM [falling, single point] | 
45 | Cc1cccc(NC(c2ccc(O)cc2)c2ccc3ccc(C)nc3c2O)n1 (configuration not stated) | 14.6 µM [falling, single point] | 
46 | Cc1ccc2c(c1)c1c3n2CCN(C(=O)CCl)C3CCC1 (configuration not stated) | 17.8 µM [falling, partial curve, poor fit] | 
47 | O=C(N/N=C/c1ccncc1)c1ccccc1 | 15.8 µM [falling, single point] | 
48 | Cc1ccc(C(=O)c2cc([N+](=O)[O-])ccc2N2CCCCC2)cc1 |  | 6.51 µM [falling, full curve]
49 | Cc1ccc(CNC(=O)CN(C)S(=O)(=O)c2cccc3cccnc23)cc1 | 3.16 µM [rising, full curve, poor fit] | 
50 | O=c1cc(-c2ccc3c(c2)OCO3)oc2ccccc12 | 0.326 µM [rising, full curve, poor fit] | 
51 | CC(C(=O)N=Nc1c(O)n(C)c2ccc(Br)cc12)n1cnc2ccccc2c1=O (configuration not stated) | 2.51 µM [falling, partial curve, poor fit] | 
52 | COc1ccc(-c2cc(C(F)F)n3ncc(C(=O)N4CCSCC4)c3n2)cc1 | 0.731 µM [rising, full curve, poor fit] | 5.17 µM [falling, partial curve, poor fit]
53 | O=[N+]([O-])c1ccc(-c2ccc(S(=O)(=O)N3CCOCC3)cc2)cc1 | 12.6 µM [rising, single point] | 
54 | Cc1ccccc1OCC(=O)N(Cc1ccc(N(C)C)cc1)C1CCS(=O)(=O)C1 (configuration not stated) | 15.8 µM [falling, single point] | 
55 | CC(C)(C)OC(=O)NCCCCCc1cn([C@@H](CO)C(=O)NCCCCCCCCCCC(=O)N2CCN(C(=O)OC(C)(C)C)CC2)nn1 | 13 µM [falling, partial curve] | 
56 | C=CCOc1ccc(/C=C/C(=O)OCC(=O)N(C)CC(=O)Nc2ccccc2Cl)cc1 | 2.59 µM [rising, partial curve, poor fit] | 
57 | O=C(C[n+]1ccc2ccccc2c1)c1cccc2ccccc12 |  | 11.2 µM [rising, partial curve, poor fit]
58 | CCn1c(Cc2ccccc2)nnc1SCc1cccc(C(=O)O)c1 | 3.66 µM [rising, partial curve, poor fit] | 
59 | Cc1cccc(Nc2ncc3c(n2)CC(C)CC3=O)c1 (configuration not stated) | 25.9 µM [falling, partial curve, poor fit] | 
60 | O=C(NC1CCN(Cc2ccccc2)CC1)c1ccc(Cn2c(=S)[nH]c3ccc(N4CCOCC4)cc3c2=O)cc1 | 7.08 µM [falling, partial curve] | 
61 | Cc1ccc(C)c(N2C(=O)CC(N3CCN(Cc4ccc5c(c4)OCO5)CC3)C2=O)c1 (configuration not stated) | 2.51 µM [falling, full curve, poor fit] | 
62 | CCOC(=O)N/N=C\c1ccc(C)s1 | 23.1 µM [falling, partial curve] | 
63 | O=C(Nc1nc(-c2cccnc2)cs1)c1ccccc1[N+](=O)[O-] | 20 µM [falling, single point] | 
